The exact form of at least one protein or probe is not confirmed.
Tests used:
[1] = tested on: TFIID + TFIIB complex (Homo sapiens); assay: binding assay; conditions: [none], fluorescence correlation spectroscopy, TFIIB added to TFIID-DNA complex, 237 to 295 microseconds, 435 with anti-TFIIB antibody, 5 nM DNA, 50 nM each protein, purified recombinant protein, protein details: Promega, label: TAMRA, letters built from the parent sequence and the stated change
[2] = biological target: TFIID (TATA box binding protein) (Homo sapiens) (UniProt P20226); assay: binding assay; conditions: [none], fluorescence correlation spectroscopy, diffusion time 178 to 237 microseconds, 5 nM DNA, 50 nM protein, purified recombinant protein, protein details: Promega, label: TAMRA, letters built from the parent sequence and the stated change

Chains of the proteins cited; added tags and fusions are not shown. A line that says so, or that is headed by a name, gives the form on record, which may keep a tag or linker.
UniProt P20226, whole entry: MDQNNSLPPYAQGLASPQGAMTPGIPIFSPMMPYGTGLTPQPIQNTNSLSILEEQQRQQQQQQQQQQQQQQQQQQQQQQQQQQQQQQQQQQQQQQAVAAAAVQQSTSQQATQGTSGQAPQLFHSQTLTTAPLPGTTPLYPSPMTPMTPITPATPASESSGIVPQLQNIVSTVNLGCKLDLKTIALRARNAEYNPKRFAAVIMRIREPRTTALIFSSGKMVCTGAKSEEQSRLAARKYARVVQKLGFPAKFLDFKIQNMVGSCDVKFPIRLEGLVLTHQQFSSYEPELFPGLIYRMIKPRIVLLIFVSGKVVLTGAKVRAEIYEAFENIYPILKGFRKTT
TFIID + TFIIB complex (Homo sapiens), one chain, as listed by the source, chain 1 of 2: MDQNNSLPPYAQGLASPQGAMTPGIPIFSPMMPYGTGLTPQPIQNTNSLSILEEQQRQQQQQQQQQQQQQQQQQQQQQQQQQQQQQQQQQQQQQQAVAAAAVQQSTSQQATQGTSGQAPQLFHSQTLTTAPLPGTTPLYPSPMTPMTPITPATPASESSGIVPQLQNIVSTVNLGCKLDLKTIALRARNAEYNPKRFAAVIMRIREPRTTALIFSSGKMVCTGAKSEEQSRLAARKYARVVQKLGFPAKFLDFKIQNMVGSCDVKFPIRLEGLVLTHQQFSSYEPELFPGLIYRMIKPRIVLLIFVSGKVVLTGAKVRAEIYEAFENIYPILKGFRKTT
TFIID + TFIIB complex (Homo sapiens), one chain, as listed by the source, chain 2 of 2: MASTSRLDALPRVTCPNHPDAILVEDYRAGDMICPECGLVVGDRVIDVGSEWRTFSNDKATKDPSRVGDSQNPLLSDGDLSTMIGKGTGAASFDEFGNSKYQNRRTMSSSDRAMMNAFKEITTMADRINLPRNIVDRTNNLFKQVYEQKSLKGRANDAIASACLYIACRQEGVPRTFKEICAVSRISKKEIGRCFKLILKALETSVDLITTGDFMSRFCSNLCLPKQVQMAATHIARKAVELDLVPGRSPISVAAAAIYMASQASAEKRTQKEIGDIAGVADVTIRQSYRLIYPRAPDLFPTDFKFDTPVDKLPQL

“CGAGAGCATATAAGGTGAGGTAGGA / TCCTACCTCACCTTATATGCTCTGC [25-mer oligonucleotide of TFIID-binding site]”: binds [1]; binds [2].

Source: patent publication US20060051805
